Values from PubChem BioAssay AID1259254 (NCATS, 2017).
Test: 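Gene knock-downs that lead to re-replication, shown by excess G2 DNA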 (primary screen). Cell system: human HCT116 colorectal cancer cells. Reagents: single siRNA against human genes. Time to read-out: 3 days. Read-out: 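Imaged Hoechst DNA stain sorts each cell into a cycle phase by DNA amount; per plate, G2 fraction set to 0% for non-targeting and 100% for GMNN siRNA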. Reading the numbers: G2 robust z-score: higher = more G2 cells, more excess DNA replication. Rule for the call: 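Active siRNAs have a G2 robust z of 5 or more median absolute deviations over the median, which in these data means about 38% or higher of GMNN control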.
This is an unselected part of about 59,000 deposited reagents. In the full data, about 1,550 (2.6%) were called active. 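G2 share is only a proxy for re-replication; each gene was hit by three separate siRNAs, and active genes were retested.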 The numbers tell different reagents against one gene apart. Further read-outs or replicates are left out here. The record does not give: the amount of reagent.

gene,siRNA no.,G2 robust z-score,Call
EXD3,1,0.344,inactive
EXD3,2,-0.312,inactive
EXD3,3,-0.777,inactive
CFAP92,1,0.865,inactive
CFAP92,2,3.31,inactive
CFAP92,3,1.36,inactive
AFG2A,1,0.109,inactive
AFG2A,2,-0.782,inactive
AFG2A,3,-0.167,inactive
JADE1,1,3.95,inactive
JADE1,2,4.25,inactive
JADE1,3,4.57,inactive
LRPPRC,1,-1.1,inactive
LRPPRC,2,-1.28,inactive
LRPPRC,3,1.23,inactive
EHF,1,1.96,inactive
EHF,2,1.03,inactive
EHF,3,0.571,inactive
HDIP1,1,0.246,inactive
HDIP1,2,0.317,inactive
HDIP1,3,-0.696,inactive
ADGRF4,1,-1.34,inactive
ADGRF4,2,0.607,inactive
ADGRF4,3,-0.618,inactive
ARPC2,1,2.28,inactive
ARPC2,2,-0.258,inactive
ARPC2,3,-0.597,inactive
RAB19,1,-0.596,inactive
RAB19,2,-0.863,inactive
RAB19,3,0.491,inactive
ATXN1,1,0.434,inactive
ATXN1,2,1.45,inactive
ATXN1,3,0.127,inactive
PI4KA,1,0.615,inactive
PI4KA,2,2.25,inactive
PI4KA,3,1.84,inactive
CYP4F22,1,7.02,active
CYP4F22,2,-0.789,inactive
CYP4F22,3,1.57,inactive
GTF2H2B,1,0.616,inactive
GTF2H2B,2,1.45,inactive
GTF2H2B,3,-0.358,inactive
DEF6,1,-0.049,inactive
DEF6,2,0.519,inactive
DEF6,3,-0.582,inactive
KLK3,1,0.76,inactive
KLK3,2,3.5,inactive
KLK3,3,-0.614,inactive
ST6GAL1,1,4.33,inactive
ST6GAL1,2,1.81,inactive
ST6GAL1,3,-0.054,inactive
ZFP69,1,-0.588,inactive
ZFP69,2,-0.237,inactive
ZFP69,3,-1.07,inactive
GCSAML,1,-0.933,inactive
GCSAML,2,-0.516,inactive
GCSAML,3,-0.4,inactive
ACVR1,1,-0.447,inactive
ACVR1,2,-1.43,inactive
ACVR1,3,-0.918,inactive
FAM153CP,1,0.211,inactive
FAM153CP,2,0.279,inactive
FAM153CP,3,0.0862,inactive
SCAF8,1,1.61,inactive
SCAF8,2,-1.56,inactive
SCAF8,3,0.0135,inactive
OR8J3,1,2.3,inactive
OR8J3,2,1.69,inactive
OR8J3,3,-1.06,inactive
NDUFS1,1,-0.303,inactive
NDUFS1,2,-0.833,inactive
NDUFS1,3,0.699,inactive
TAX1BP1,1,4.04,inactive
TAX1BP1,2,0.661,inactive
TAX1BP1,3,2.25,inactive
GDF1,1,0.202,inactive
GDF1,2,0.478,inactive
GDF1,3,1.36,inactive
LOC729296,1,-0.215,inactive
LOC729296,2,-0.342,inactive
LOC729296,3,1.49,inactive
PLEK2,1,0.628,inactive
PLEK2,2,2.24,inactive
PLEK2,3,1.25,inactive
RPS17P10,1,-0.789,inactive
RPS17P10,2,0.216,inactive
RPS17P10,3,-0.272,inactive

15 entries already listed, arranged by “G2 robust z-score”, high to low:
gene,siRNA no.,G2 robust z-score,Call
ARPC2,1,2.28,inactive
ATXN1,2,1.45,inactive
ADGRF4,2,0.607,inactive
EHF,3,0.571,inactive
RAB19,3,0.491,inactive
ATXN1,1,0.434,inactive
HDIP1,2,0.317,inactive
HDIP1,1,0.246,inactive
ARPC2,2,-0.258,inactive
RAB19,1,-0.596,inactive
ARPC2,3,-0.597,inactive
ADGRF4,3,-0.618,inactive
HDIP1,3,-0.696,inactive
RAB19,2,-0.863,inactive
ADGRF4,1,-1.34,inactive
